Measurements taken from patent US20250382359A1.
Results are given in words; binding and its absence hold for the method and conditions named. Some results given as binding are weak or reduced against the parent protein; the word gives no strength.

Chains of the proteins cited; added tags and fusions are not shown. Residues count along the entry.
UniProt Q9Z0J7, residues 189-303: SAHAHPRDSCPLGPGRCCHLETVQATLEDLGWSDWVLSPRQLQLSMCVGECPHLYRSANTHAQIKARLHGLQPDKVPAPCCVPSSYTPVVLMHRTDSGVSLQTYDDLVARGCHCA
UniProt P39905, residues 78-211: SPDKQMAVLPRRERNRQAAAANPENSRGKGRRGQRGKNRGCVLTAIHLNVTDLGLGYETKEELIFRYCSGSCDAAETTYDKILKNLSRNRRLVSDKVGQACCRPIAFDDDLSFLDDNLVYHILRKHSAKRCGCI

Assays:
[1] = biological target: Mouse GDF15 Fc (mouse) (UniProt Q9Z0J7); test: BLI Octet; antigen on sensor, 100 nM Fab (monovalent)
[2] = biological target: GDNF (UniProt P39905); test: BLI Octet; IgG on sensor, 100 nM antigen (avid)

Binder | binding [1] | binding [2]
GDF15 antibody agent Clone J, Fab (Fab, V domains shown) VH: QVQLVQSGAEVKKPGASVKVSCKASGYTFTSYGINWVRQAPGQGLEWMGWIDAYSGSTNYAQKLQGRVTMTTDTSTSTAYMELRSLRSDDTAVYYCARGPGQYADVDVWGQGTMVTVSS VL: DIQMTQSPSSVSASVGDRVTITCRASQGISSWLAWYQQKPGKAPKLLIYAASSLQSGVPSRFSGSGSGTDFTLTISSLQPEDFATYYCQQANSFPITFGGGTKVEIK | binds | –
GDF15 antibody agent Clone P, Fab (Fab, V domains shown) VH: QVQLVQSGAEVKKPGATVKVSCKASGYTFDSYGIHWVRQAPGQGLEWMGWITAYSGDTVYAQKLQGRVTMTTDTSTSTAYMELRSLRSDDTAVYYCARESGQTSSALGPWGQGTLVTVSS VL: DIQMTQSPSSVSASVGDRVTITCRASQGISRWLAWYQQKPGKAPKLLIYAASSLQSGVPSRFSGSGSGTDFTLTISSLQPEDFATYYCQQGASFPLTFGGGTKVEIK | binds | –
GDF15 antibody agent Clone J, IgG (antibody, V domains shown) VH: QVQLVQSGAEVKKPGASVKVSCKASGYTFTSYGINWVRQAPGQGLEWMGWIDAYSGSTNYAQKLQGRVTMTTDTSTSTAYMELRSLRSDDTAVYYCARGPGQYADVDVWGQGTMVTVSS VL: DIQMTQSPSSVSASVGDRVTITCRASQGISSWLAWYQQKPGKAPKLLIYAASSLQSGVPSRFSGSGSGTDFTLTISSLQPEDFATYYCQQANSFPITFGGGTKVEIKR | – | binds
GDF15 antibody agent Clone P, IgG (antibody, V domains shown) VH: QVQLVQSGAEVKKPGATVKVSCKASGYTFDSYGIHWVRQAPGQGLEWMGWITAYSGDTVYAQKLQGRVTMTTDTSTSTAYMELRSLRSDDTAVYYCARESGQTSSALGPWGQGTLVTVSS VL: DIQMTQSPSSVSASVGDRVTITCRASQGISRWLAWYQQKPGKAPKLLIYAASSLQSGVPSRFSGSGSGTDFTLTISSLQPEDFATYYCQQGASFPLTFGGGTKVEIKR | – | binds
